Results published in PMC12607632.
Results are given in words; binding and its absence hold for the method and conditions named. Some results given as binding are weak or reduced against the parent protein; the word gives no strength.

Biological target: Bsp22 of B. bronchiseptica RB50 with an optimized tetracysteine tag (TC-tag) between M138 and A139 (Bsp22^TC) (Bordetella bronchiseptica RB50) (UniProt Q9REZ7)
Experiment: fluorescence microscopy after pulse-chase labelling with biarsenical dyes; Bb bsp22^TC cells in solution in reducing BLM, 1 µM ReAsH (pulse) then 1 µM FlAsH (chase), 37°C; wide-field microscopy and SIM

**Q.** For “Bsp22 of B. bronchiseptica RB50 with an optimized tetracysteine tag (TC-tag) between M138 and A139 (Bsp22^TC) (from UniProt Q9REZ7 1-205)”, which binding is on record?
**A.** binds
